# Among all 140,000 compounds or so, about 4,300 (3.1%) were called active. Inconclusive results, whose numbers are uncertain, are shown with a selection of clear calls.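 How the source made its calls: active means readout at or below -70, meaning at least 70% loss of cells showing the perinucleolar compartment, a nuclear body marking cancer cells; inconclusive means readout between -30 and a set limit; inactive means the rest.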
# Assay: High Content Assay for Compounds that inhibit the Assembly of the Perinucleolar Compartment;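 further: plate controls were DMSO wells for no effect and camptothecin positive control wells for full effect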
# Conditions: PC3M PTB-GFP, PNC prevalence imaging, 16 h; at 10 µM; stronger effect = lower value
# How it was run: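 Read-out is percentage of cells bearing a perinucleolar compartment, from automated 20x imaging of fixed, Hoechst-stained PC3M PTB-GFP cells. Cells were seeded 4 h, then exposed 16 h to compound (23 nl of library stock) in duplicate plates.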
row,Structure (SMILES),"activity change (PNC), negative = inhibition"
1,Clc1ccc(Cl)c(OCCN2CCOCC2)c1,inconclusive: -45.1%
2,COc1ccc(OC)c(CNC(=O)Cc2c(C(=O)O)[nH]c3ccccc23)c1,inactive: 15.5%
3,CC(C)(C)n1ncc2c(=O)n(CC(=O)N3CCCCCC3)cnc21,inactive: -25.7%
4,Cc1nc2ccccc2n1CC(=O)N/N=C\c1ccccn1,inconclusive: -46.9%
5,COc1cc(NS(=O)(=O)c2ccc(N/C=C(\C=O)c3nc4ccccc4o3)cc2)nc(OC)n1,inconclusive: -68.1%
6,COCCCNC(=O)C1CCN(c2ncccn2)CC1,inconclusive: -47.6%
7,CCSc1ccc(-c2nn(-c3ccccc3)cc2/C=C(/C#N)C(=O)NCCCOC)cc1,inconclusive: -32.2%
8,CCCCCC(=O)NC(=S)Nc1ccc(N2CCOCC2)cc1,inactive: -28.4%
9,CC(C)CN(C(=O)CN1CCN(c2ccc(F)cc2)CC1)c1c(N)n(CC(C)C)c(=O)[nH]c1=O,inconclusive: -52.8%
10,CCC(C)C1C(C#N)=C(N)Oc2n[nH]c(C)c21 (configuration not stated),inconclusive: -33.6%
11,Cc1cccc(C)c1NC(=O)NC1CC2CCC(C1)N2Cc1cccs1 (configuration not stated),active: -83.5%
12,CC(C)N(CCc1ccncc1)C(=O)Nc1ccc(F)cc1,inconclusive: -71.5%
13,O=C(NNC1CC(=O)N(c2cccc(Cl)c2)C1=O)c1cccnc1 (configuration not stated),active: -121%
14,COc1ccccc1-c1noc(-c2ccccc2)n1,inactive: -6.06%
15,COc1cccc2[nH]c3c(=O)n(CCN(C)C)cnc3c12,active: -87.2%
16,Cc1nc(SCC(=O)Nc2ccc(N3CCOCC3)cc2)nc(C)c1C,inactive: -26.9%
17,C=C(C)c1cccc(C(C)(C)NC(=O)Nc2ncccn2)c1,inconclusive: -37.6%
18,O=C(O)C1CC(=O)N(CCOc2ccccc2)C1 (configuration not stated),inconclusive: -64%
19,CCN1CCN(CC(=O)c2c[nH]c3ccccc23)CC1,inconclusive: -42%
20,O=C(CNc1ccc(C(F)(F)F)cc1[N+](=O)[O-])OCC(=O)c1ccccc1,inconclusive: -46.9%
21,CNCCCC1c2ccccc2C=Cc2ccccc21,inconclusive: -67.1%
22,COc1cccc(C(c2sc3ncnn3c2O)N2CCc3ccccc3C2)c1 (configuration not stated),inactive: 9.32%
23,CCOC(=O)c1ccc(NC(=O)Nc2ccc3c4c(cccc24)C(=O)N3CC)cc1,inconclusive: -44.6%

row,Structure (SMILES),"activity change (PNC), negative = inhibition"
1,Cc1ncc([N+](=O)[O-])n1CC(=O)NC1CCCC1,inconclusive: -60.6%
2,CCOC(=O)Cc1cc(=O)n(-c2nc3ccccc3s2)[nH]1,inconclusive: -38.3%
3,CCn1c(=O)c2cc(C(=O)Nc3cc(C)on3)sc2c2ccccc21,inconclusive: -39.2%
4,O=C(CSc1oc(-c2ccc(F)cc2)nc1S(=O)(=O)c1ccccc1)NCC1CCCO1 (configuration not stated),active: -119%
5,O=C(OCn1nnc2ccccc2c1=O)c1cc(-c2ccccc2)nc2ccccc12,inactive: -15.9%
6,COc1ccc(CNC(=O)C2CCN(c3nc(OC)nc(OC)n3)CC2)cc1,inconclusive: -43.5%
7,CC[N+]1(C)CCC(=C2c3ccccc3CC(=O)c3sccc32)CC1 (configuration not stated),inactive: -10.2%
8,O=C(O)/C=C/C(=O)NNC(=O)c1cccc(Br)c1,inactive: 115%
9,Cc1ccc(NC(=O)COC(=O)C2CC3C=CC2C3)cc1S(=O)(=O)N1CCCCC1 (configuration not stated),inconclusive: -30.6%
10,CCOC(=O)c1[nH]c2ccc(OC)cc2c1NC(=O)CCN1CCCC(C)C1 (configuration not stated),inconclusive: -60.4%
11,C[C@H](Nc1ncnc2sc3c(c12)CCC3)C(=O)O,inconclusive: -39.4%
12,CCOc1ccc(C(C)=O)cc1N1C(=O)C2C3C=CC(O3)C2C1=O (configuration not stated),inactive: 6.4%
13,CN1CCc2c(sc3c2c(=O)n(-c2ccccc2)c2nnc(SCc4ccc(Cl)cc4)n32)C1,inactive: 62.9%
14,CN(/N=C/c1cccnc1)c1cnn(-c2ccc(F)c(Cl)c2)c(=O)c1Cl,inconclusive: -57.8%
15,CCN(CC)P(=O)(C(NC(=O)OC)C(F)(F)C(F)(F)C(F)(F)C(F)F)N(CC)CC (configuration not stated),inconclusive: -66.3%
16,COc1cc(C2Sc3ccccc3NC3=C2C(=O)OC3)cc(OC)c1OC (configuration not stated),inconclusive: -78.3%
17,N#CC(c1ccc(Cl)cc1)c1ncc(C(F)(F)F)cc1Cl (configuration not stated),inactive: 10%
18,CCOc1ccccc1OCCn1nnc2ccccc21,inconclusive: -74.1%
19,CC(C)(C)c1ccc(S(=O)(=O)Nc2cccnc2)cc1,inactive: 24.2%
20,COc1ccc(C(=O)Nc2ccccc2N2CCN(C(=O)C(C)C)CC2)cc1Cl,inconclusive: -41.4%
21,COc1ccc2nc(SCC(=O)Nc3ccc(S(=O)(=O)Nc4nccc(C)n4)cc3)[nH]c2c1,inactive: 28%
22,CC(C)(C)n1nnnc1C(c1cccs1)N1CCN(c2ccccc2)CC1 (configuration not stated),inconclusive: -63.1%
23,Fc1ccc(-n2[nH]nnc2=S)cc1N1CCCC1,inactive: -18.7%

row,Structure (SMILES),"activity change (PNC), negative = inhibition"
1,Cc1nnc(SCC(=O)N2CCOCC2)s1,inconclusive: -41.5%
2,Cc1ccc(Br)cc1S(=O)(=O)N1CCN(c2ccccc2)CC1,inconclusive: -46.5%
3,O=C(c1ccccc1)N(Cc1ccc(F)cc1)C1CCS(=O)(=O)C1 (configuration not stated),inconclusive: -68.5%
4,CC(=O)c1sc(NC(=O)c2ccc(F)c(F)c2)nc1C,inactive: -2.03%
5,CCCc1nc(SCC(=O)N2CCc3ccccc32)c2c(C)c(C)sc2n1,inconclusive: -44.4%
6,CCN(CC)C(=O)c1ccc(C(=O)c2ccccc2)cc1,inactive: 40.9%
7,CC(=O)Nc1ccc2nc(-c3ccccn3)[nH]c2c1,inactive: -16.6%
8,C/C(=N\Nc1ccc(Cl)cc1)c1ccccn1,inconclusive: -30%
9,C/C(=N/NS(C)(=O)=O)c1ccc2ccccc2c1,active: -103%
10,Cn1cccc1Cc1nnc(SCC(=O)Nc2ccc3c(c2)OCCO3)n1CCc1ccccc1,inconclusive: -46.1%
11,COc1ccc(NC(=O)CCSCCC(=O)Nc2ccc(OC)cc2OC)c(OC)c1,inconclusive: -42.3%
12,CC(C)c1cc(C(=O)Nc2ccc3c(c2)OCO3)no1,inconclusive: -59.3%
13,Nc1c(N(CCO)C(=O)COc2ccc(Cl)cc2)c(=O)[nH]c(=O)n1Cc1ccccc1,inconclusive: -30%
14,CC(C)C(NC(=O)OCc1ccccc1)C(=O)NC1CCCCC1 (configuration not stated),inconclusive: -45.9%
15,CSC1=C(C#N)C(c2cccs2)CC(=O)N1C (configuration not stated),inactive: 9.52%
16,CCOC(=O)C1CCN(C(=O)c2ccccc2NC(=O)c2ccc(Br)cc2)CC1,inconclusive: -46.1%
17,O=C1OC(c2cccc([N+](=O)[O-])c2)C2(CCCC2)C(=O)C12CCCCC2 (configuration not stated),inactive: 48.2%
18,S=c1[nH]nc(C2CC2)n1Cc1ccco1,inactive: -4.62%
19,Cc1cc(C)c(OCC(=O)Nc2ccc3c(c2)OCO3)cc1C,inconclusive: -63.7%
20,Cc1cc(C)n(-c2ccc(C(=O)Nc3nc4ccccc4s3)cc2)n1,inconclusive: -31.6%
21,O=C1/C(=C/c2cccnc2)Oc2cc(OS(=O)(=O)c3ccc(Cl)cc3)ccc21,inconclusive: -67.2%
22,COCCNC(=O)COc1ccccc1Cl,inconclusive: -47.5%
23,CSc1c(CC(=O)Nc2ccccc2C(F)(F)F)n(Cc2ccccc2)c2ccccc12,active: -106%

# Random excerpt: two compounds from above, in no set order.
row,Structure (SMILES),"activity change (PNC), negative = inhibition"
1,Cc1nnc(SCC(=O)N2CCOCC2)s1,inconclusive: -41.5%
19,Cc1cc(C)c(OCC(=O)Nc2ccc3c(c2)OCO3)cc1C,inconclusive: -63.7%

# The list continues.

row,Structure (SMILES),"activity change (PNC), negative = inhibition"
1,Cc1cc(C)nc(NS(=O)(=O)c2ccc(NC(=O)CN3C(=O)c4ccccc4C3=O)cc2)n1,active: -92.4%
2,CCC(C)Sc1nc2c(c(=O)n1C)SC(C)C2 (configuration not stated),inconclusive: -45.4%
3,O=[N+]([O-])c1ccc(/C=N/n2c(CO)nc3ccccc32)s1,inconclusive: -60.9%
4,COc1ccc2c(c1)OC(O)(C(F)(F)F)CC2=O (configuration not stated),inconclusive: -33.5%
5,Cn1ccnc1SCC(=O)NC12CC3CC(CC(C3)C1)C2,active: -127%
6,CCCOC(=O)Nc1cccc(C(C)=O)c1,active: -100%
7,N#CCCN1CCN(S(=O)(=O)c2ccc(S(=O)(=O)NCC3CCCO3)cc2)CC1 (configuration not stated),inconclusive: -55.3%
8,Cc1cc(C)c(S(=O)(=O)Nc2cc(SCC(=O)O)c(O)c3ccccc23)cc1C,inconclusive: -71.1%
9,CN(CC(=O)Nc1ccccc1N1CCOCC1)S(=O)(=O)c1ccc(Cl)cc1,inconclusive: -38.9%
10,CCN(CC)S(=O)(=O)c1ccc(NC2c3ccccc3C(=O)N2Cc2ccc3c(c2)OCO3)cc1 (configuration not stated),inconclusive: -39.9%
11,O=C(COc1ccc2c(C(F)(F)F)cc(=O)oc2c1)Nc1ccc(N2CCOCC2)cc1,inconclusive: -41.4%
12,CCn1c(=O)cc(OCC(=O)NCCC(C)C)c2ccccc21,inconclusive: -35.7%
13,COc1cccc(CN=CC2=C(O)CC(C)(C)CC2=O)c1OC,inconclusive: -48.3%
14,O=C(O)CCNC(=O)c1ccc(Br)o1,inconclusive: -54.4%
15,O=C(c1ccco1)N1C(=O)c2cccc3c(S(=O)(=O)N4CCCC4)ccc1c23,inconclusive: -64.1%
16,CC1(C)Cc2ccccc2-c2nnc(SCC(=O)Nc3ccc4c(c3)OCO4)n21,inconclusive: -60.9%
17,CC(=O)Nc1ccc(C(=O)CSc2nnnn2C(C)C)cc1,inconclusive: -71.1%
18,Fc1cc(F)c2nc(N3CCOCC3)sc2c1,inconclusive: -35.7%
19,CC1=NN(C(=O)CCc2ccccc2O)C(O)(C(F)(F)F)C1 (configuration not stated),inconclusive: -36%
20,O=C(Cc1cccs1)NCc1cccs1,inconclusive: -39.9%
21,CC(C)OC(=O)c1cc(-c2ccc(C=O)o2)ccc1Cl,inconclusive: -36.9%
22,Cc1c(N=C(N)/N=C(\N)Nc2ccc(Br)cc2)c(=O)n(-c2ccccc2)n1C,inactive: 15.5%
23,CCC1(C)Cc2ccccc2-c2nc3n(c(=O)c21)CCS3 (configuration not stated),inconclusive: -61.4%

# Single entries from the results shown.
# activity change (PNC), negative = inhibition, `N#CC(c1ccc(Cl)cc1)c1ncc(C(F)(F)F)cc1Cl` (configuration not stated) is entered as inactive: 10%
# activity change (PNC), negative = inhibition, `CCOC(=O)C1CCN(C(=O)c2ccccc2NC(=O)c2ccc(Br)cc2)CC1` is entered as inconclusive: -46.1%

# Source: PubChem BioAssay AID2417 (National Center for Advancing Translational Sciences (NCATS), 2010)
